Experimental data reported in article PMC12307474.
These are yes or no findings as the source states them, for the method shown. Binding seen in cells or lysates may run through a third protein. Some binding calls cover weakened binding; strength is not graded here.

Sequences of proteins named here, by UniProt entry; tags and fusion partners are left off.
UniProt P31939: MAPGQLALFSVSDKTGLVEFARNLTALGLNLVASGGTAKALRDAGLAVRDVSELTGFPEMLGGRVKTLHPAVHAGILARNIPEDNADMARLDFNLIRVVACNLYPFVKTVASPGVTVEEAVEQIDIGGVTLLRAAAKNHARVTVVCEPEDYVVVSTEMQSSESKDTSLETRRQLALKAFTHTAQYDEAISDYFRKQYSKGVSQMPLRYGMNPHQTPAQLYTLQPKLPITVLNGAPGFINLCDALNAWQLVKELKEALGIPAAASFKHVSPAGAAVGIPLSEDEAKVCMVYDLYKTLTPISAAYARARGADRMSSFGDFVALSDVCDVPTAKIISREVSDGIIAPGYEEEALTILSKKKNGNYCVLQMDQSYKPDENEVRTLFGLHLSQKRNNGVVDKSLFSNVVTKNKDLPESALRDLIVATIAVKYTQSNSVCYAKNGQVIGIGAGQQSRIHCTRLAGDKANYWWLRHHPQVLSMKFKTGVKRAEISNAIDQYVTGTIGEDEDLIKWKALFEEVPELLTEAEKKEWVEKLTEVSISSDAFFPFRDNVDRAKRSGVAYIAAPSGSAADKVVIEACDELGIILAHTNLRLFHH

Target: T1, Serine hydroxymethyltransferase, cytoplasmic isoenzyme (SHMT1) (human (endogenous in T24)) (UniProt P34896)
T1 sequence: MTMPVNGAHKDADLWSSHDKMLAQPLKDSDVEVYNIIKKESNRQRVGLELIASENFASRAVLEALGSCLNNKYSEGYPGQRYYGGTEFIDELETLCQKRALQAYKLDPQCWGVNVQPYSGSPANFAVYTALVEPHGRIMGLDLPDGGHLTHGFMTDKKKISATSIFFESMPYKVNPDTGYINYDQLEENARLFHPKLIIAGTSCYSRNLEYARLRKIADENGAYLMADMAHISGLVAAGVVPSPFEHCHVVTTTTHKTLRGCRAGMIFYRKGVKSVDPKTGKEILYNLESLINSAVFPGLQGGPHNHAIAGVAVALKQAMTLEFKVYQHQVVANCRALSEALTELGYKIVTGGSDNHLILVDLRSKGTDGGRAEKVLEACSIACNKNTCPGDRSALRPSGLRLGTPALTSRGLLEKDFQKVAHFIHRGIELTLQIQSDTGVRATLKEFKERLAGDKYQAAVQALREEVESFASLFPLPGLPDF
Assay: co-IP; T24 cells lysed in IP lysis buffer; Protein A/G Sepharose with anti-SHMT1 antibody and anti-ATIC antibody, 4°C overnight, beads washed three times with lysis buffer; western blot of the immunoprecipitates

binding: binds
Substance: 5-aminoimidazole-4-carboxamide ribonucleotide formyltransferase/IMP cyclohydrolase (ATIC) (from UniProt P31939 1-592)
